Changes are numbered by the printed parent chain. The entries are a selection whose mix differs from that of the whole data set. The calls were merged from several studies; some rest on single wells. This is one part of the list.
How the values were obtained:
Conditions in all cases: stereoisomer not certain
OR2AG2 (Homo sapiens) = target: T1, OR2AG2 (Homo sapiens) (UniProt A6NM03)
T1 sequence (whole entry): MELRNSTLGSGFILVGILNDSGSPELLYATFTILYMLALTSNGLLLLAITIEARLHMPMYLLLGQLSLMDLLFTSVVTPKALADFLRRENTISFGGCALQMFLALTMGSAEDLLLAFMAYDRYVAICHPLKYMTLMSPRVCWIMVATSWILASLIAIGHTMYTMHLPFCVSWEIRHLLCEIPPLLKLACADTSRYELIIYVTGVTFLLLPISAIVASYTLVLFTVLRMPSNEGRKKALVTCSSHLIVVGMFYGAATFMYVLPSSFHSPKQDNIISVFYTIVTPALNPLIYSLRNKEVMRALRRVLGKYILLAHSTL
Procedure, shortened: (§1)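 Whether a receptor–molecule pair is responsive (active) rests on the original authors' judgment that its measured signal was statistically different from baseline. Pairs without that judgment are non-responsive (inactive). Sources used varied assay methods, commonly transient luciferase assays in mammalian cell lines.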

Chains of the proteins cited; added tags and fusions are not shown. A line that says so, or that is headed by a name, gives the form on record, which may keep a tag or linker.
OR2C1, as listed by the source: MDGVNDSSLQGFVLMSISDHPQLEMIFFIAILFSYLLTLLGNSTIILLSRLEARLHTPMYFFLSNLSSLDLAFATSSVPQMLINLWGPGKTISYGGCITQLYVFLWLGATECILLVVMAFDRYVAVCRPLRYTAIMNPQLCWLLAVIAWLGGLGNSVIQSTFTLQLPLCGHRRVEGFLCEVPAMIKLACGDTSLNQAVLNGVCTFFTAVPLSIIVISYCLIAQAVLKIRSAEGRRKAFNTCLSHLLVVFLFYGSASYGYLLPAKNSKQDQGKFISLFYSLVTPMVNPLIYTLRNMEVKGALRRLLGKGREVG

OR2AP1 (Homo sapiens) = target: T2, OR2AP1 (Homo sapiens) (UniProt Q8NGE2)
T2 sequence (whole entry): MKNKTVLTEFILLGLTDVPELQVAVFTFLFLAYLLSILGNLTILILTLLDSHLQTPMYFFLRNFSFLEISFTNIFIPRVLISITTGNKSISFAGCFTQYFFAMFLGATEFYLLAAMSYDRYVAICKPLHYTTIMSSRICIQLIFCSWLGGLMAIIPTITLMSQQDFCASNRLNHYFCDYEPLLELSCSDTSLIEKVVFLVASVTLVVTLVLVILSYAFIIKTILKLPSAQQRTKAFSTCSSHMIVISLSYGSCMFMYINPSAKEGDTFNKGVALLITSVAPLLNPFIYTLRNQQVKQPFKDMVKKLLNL
Procedure, shortened: as §1

OR2AT4 (Homo sapiens) = target: T3, OR2AT4 (Homo sapiens) (UniProt A6NND4)
T3 sequence (whole entry): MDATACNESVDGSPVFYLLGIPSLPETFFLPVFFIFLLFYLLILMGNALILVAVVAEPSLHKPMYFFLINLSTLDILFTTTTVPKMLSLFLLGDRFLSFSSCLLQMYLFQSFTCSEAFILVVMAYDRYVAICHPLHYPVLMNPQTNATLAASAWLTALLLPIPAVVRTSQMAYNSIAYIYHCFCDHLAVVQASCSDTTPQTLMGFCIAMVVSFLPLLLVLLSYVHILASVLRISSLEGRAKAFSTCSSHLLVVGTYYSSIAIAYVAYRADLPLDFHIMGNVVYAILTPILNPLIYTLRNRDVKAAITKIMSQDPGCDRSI
Procedure, shortened: as §1

OR2B11 (Homo sapiens) = target: T4, OR2B11 (Homo sapiens) (UniProt Q5JQS5)
T4 sequence (whole entry): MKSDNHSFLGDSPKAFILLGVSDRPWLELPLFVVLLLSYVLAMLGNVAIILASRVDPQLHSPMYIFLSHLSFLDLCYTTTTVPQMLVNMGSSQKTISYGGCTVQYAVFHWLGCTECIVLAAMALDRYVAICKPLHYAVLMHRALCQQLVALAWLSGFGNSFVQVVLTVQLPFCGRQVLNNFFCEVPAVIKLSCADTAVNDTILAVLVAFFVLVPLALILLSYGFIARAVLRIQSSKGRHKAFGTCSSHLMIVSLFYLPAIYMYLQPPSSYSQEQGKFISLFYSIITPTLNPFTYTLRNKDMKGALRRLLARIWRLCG
Procedure, shortened: as §1

OR2B2 (Homo sapiens) = target: T5, OR2B2 (Homo sapiens) (UniProt Q9GZK3)
T5 sequence (whole entry): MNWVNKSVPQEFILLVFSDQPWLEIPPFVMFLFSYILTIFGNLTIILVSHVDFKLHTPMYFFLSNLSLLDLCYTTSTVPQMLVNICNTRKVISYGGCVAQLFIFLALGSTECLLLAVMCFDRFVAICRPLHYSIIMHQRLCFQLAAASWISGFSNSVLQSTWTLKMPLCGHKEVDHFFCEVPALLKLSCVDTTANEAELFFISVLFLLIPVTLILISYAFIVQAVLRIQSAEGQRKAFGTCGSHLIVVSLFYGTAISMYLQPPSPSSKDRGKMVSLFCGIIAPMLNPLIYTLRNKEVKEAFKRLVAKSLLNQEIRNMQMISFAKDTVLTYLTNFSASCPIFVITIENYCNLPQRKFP
Procedure, shortened: as §1

OR2B3 (Homo sapiens) = target: T6, OR2B3 (Homo sapiens) (UniProt O76000)
T6 sequence (whole entry): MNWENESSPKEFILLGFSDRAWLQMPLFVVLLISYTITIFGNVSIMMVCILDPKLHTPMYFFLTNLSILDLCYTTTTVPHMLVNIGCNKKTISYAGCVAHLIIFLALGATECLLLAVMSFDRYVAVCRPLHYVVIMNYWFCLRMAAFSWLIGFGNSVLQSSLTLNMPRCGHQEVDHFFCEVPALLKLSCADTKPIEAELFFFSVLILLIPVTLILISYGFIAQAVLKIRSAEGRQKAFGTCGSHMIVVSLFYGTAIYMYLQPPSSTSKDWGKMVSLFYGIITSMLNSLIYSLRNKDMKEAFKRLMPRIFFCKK
Procedure, shortened: as §1

OR2B6 (Homo sapiens) = target: T7, OR2B6 (Homo sapiens) (UniProt P58173)
T7 sequence (whole entry): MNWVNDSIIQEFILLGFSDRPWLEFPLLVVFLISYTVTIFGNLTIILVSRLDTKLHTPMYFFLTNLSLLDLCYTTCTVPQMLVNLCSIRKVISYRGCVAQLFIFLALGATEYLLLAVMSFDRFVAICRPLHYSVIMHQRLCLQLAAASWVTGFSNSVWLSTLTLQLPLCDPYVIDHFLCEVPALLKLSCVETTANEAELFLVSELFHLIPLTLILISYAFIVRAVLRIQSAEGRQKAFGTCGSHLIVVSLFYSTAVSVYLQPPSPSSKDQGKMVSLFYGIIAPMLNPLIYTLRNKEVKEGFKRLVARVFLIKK
Procedure, shortened: as §1

OR2B8 = system: T8, OR2B8
T8 sequence (whole entry): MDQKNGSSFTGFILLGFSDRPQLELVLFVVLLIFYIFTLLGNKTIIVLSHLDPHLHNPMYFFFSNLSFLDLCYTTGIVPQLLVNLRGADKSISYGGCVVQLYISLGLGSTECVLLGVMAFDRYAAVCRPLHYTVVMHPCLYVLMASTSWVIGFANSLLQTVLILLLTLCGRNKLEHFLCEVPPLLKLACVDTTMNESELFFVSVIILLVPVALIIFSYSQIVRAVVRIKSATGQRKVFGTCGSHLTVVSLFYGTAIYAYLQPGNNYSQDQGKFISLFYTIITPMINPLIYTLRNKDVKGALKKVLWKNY
Procedure, shortened: as §1

OR2C1 [1] = system: T9, OR2C1
T9 sequence (whole entry): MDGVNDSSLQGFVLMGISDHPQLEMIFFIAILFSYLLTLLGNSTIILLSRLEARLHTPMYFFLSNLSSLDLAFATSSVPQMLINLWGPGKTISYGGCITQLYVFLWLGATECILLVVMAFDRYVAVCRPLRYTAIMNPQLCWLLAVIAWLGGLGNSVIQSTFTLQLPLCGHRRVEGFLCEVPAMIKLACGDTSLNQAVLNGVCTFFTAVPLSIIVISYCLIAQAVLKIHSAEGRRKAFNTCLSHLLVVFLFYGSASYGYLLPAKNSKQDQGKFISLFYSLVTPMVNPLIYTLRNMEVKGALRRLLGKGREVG
Procedure, shortened: as §1

OR2C1 [2] = system: T10, OR2C1; remark: listed apart in the source
T10 sequence (whole entry): T9 sequence (whole entry) with H229R
Procedure, shortened: as §1

OR2C1 [3] = system: T11, OR2C1; remark: listed apart in the source
T11 sequence (whole entry): T9 sequence (whole entry) with P58S, H229R
Procedure, shortened: as §1

OR2C1 [4] = system: T12, OR2C1; remark: listed apart in the source
T12 sequence (whole entry): T9 sequence (whole entry) with G16S
Procedure, shortened: as §1

OR2C1 [5] = system: T13, OR2C1; remark: listed apart in the source
T13 sequence (whole entry): T9 sequence (whole entry) with G16S, H229R
Procedure, shortened: as §1

OR2C3 = system: T14, OR2C3
T14 sequence (whole entry): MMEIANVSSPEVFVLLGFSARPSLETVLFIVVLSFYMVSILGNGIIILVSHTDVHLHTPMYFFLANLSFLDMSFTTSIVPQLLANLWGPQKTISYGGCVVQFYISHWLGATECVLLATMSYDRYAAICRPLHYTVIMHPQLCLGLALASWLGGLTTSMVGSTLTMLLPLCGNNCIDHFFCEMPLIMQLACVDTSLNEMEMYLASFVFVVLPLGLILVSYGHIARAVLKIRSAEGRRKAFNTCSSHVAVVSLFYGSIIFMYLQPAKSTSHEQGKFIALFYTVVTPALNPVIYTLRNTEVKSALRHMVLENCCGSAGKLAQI
Procedure, shortened: as §1

OR2D2 (Homo sapiens) = target: T15, OR2D2 (Homo sapiens) (UniProt Q9H210)
T15 sequence (whole entry): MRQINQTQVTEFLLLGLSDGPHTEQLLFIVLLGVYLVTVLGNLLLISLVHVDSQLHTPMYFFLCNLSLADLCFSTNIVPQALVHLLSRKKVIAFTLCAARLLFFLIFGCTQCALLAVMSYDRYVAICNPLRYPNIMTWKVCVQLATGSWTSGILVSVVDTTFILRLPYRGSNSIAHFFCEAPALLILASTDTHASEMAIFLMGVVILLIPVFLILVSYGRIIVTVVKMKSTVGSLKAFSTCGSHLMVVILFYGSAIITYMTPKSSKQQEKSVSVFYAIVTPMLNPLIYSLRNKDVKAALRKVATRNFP
Procedure, shortened: as §1

OR2D3 = system: T16, OR2D3
T16 sequence (whole entry): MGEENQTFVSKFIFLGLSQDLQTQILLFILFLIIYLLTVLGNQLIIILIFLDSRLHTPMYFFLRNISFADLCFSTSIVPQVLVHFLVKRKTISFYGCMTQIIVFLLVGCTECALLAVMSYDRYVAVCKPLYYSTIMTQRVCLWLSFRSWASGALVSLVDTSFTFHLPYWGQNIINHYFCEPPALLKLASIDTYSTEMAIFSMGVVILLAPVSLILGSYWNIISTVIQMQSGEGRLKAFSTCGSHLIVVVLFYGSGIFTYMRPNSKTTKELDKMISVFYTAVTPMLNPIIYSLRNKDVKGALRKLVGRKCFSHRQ
Procedure, shortened: as §1

OR2F1 (Homo sapiens) = target: T17, OR2F1 (Homo sapiens) (UniProt Q13607)
T17 sequence (whole entry): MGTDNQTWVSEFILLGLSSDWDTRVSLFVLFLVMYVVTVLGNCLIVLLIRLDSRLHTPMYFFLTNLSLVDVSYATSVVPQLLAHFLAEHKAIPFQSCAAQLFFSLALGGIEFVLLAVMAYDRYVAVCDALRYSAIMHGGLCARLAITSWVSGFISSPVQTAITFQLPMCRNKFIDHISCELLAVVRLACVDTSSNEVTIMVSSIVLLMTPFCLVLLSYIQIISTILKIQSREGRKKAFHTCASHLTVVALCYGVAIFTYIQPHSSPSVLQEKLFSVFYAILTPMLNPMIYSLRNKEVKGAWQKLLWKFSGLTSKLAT
Procedure, shortened: as §1

OR2F2 = system: T18, OR2F2
T18 sequence (whole entry): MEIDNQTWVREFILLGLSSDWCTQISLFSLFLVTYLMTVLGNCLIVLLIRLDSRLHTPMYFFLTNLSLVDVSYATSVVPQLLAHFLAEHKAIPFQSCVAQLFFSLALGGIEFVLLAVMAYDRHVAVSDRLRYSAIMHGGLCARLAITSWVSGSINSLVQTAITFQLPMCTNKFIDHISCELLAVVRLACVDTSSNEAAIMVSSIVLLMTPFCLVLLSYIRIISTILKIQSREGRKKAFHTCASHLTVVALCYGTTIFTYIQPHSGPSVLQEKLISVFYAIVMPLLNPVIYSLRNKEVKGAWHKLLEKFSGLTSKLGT
Procedure, shortened: as §1

OR2G2 [6] = system: T19, OR2G2
T19 sequence (whole entry): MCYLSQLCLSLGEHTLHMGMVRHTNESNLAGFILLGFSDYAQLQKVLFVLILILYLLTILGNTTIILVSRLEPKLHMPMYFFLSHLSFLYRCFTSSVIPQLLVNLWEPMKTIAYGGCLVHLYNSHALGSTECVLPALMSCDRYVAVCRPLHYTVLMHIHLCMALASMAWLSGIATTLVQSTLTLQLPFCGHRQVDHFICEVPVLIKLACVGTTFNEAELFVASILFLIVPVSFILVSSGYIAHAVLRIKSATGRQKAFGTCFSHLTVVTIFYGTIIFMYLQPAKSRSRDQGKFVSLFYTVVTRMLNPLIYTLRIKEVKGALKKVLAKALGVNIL
Procedure, shortened: as §1

OR2G2 [7] = system: T20, OR2G2; remark: listed apart in the source
T20 sequence (whole entry): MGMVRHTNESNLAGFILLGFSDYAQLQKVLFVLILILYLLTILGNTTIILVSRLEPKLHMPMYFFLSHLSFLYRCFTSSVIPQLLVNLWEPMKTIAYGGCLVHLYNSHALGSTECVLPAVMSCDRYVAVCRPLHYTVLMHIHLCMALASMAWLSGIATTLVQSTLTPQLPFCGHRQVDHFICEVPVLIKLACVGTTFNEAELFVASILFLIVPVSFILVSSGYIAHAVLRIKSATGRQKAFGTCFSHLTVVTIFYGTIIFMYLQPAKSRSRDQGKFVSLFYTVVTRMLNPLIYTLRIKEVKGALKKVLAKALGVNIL
Procedure, shortened: as §1
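Note: active if original authors judged signal statistically different from baseline.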

Compound	odorant receptor agonist call (OR2AG2 (Homo sapiens))	odorant receptor agonist call (OR2AP1 (Homo sapiens))	odorant receptor agonist call (OR2AT4 (Homo sapiens))	odorant receptor agonist call (OR2B11 (Homo sapiens))	odorant receptor agonist call (OR2B2 (Homo sapiens))	odorant receptor agonist call (OR2B3 (Homo sapiens))	odorant receptor agonist call (OR2B6 (Homo sapiens))	odorant receptor agonist call (OR2B8)	odorant receptor agonist call (OR2C1 [1])	odorant receptor agonist call (OR2C1 [2])	odorant receptor agonist call (OR2C1 [3])	odorant receptor agonist call (OR2C1 [4])	odorant receptor agonist call (OR2C1 [5])	odorant receptor agonist call (OR2C3)	odorant receptor agonist call (OR2D2 (Homo sapiens))	odorant receptor agonist call (OR2D3)	odorant receptor agonist call (OR2F1 (Homo sapiens))	odorant receptor agonist call (OR2F2)	odorant receptor agonist call (OR2G2 [6])	odorant receptor agonist call (OR2G2 [7])
CCC(C)=O	inactive	inactive	inactive	inactive	inactive	inactive	inactive	inactive	inactive	inactive	inactive	inactive	inactive	inactive	inactive	inactive	inactive	inactive	inactive	inactive
CS	inactive	inactive	inactive	inactive	inactive	inactive	inactive	inactive	inactive	inactive	inactive	inactive	inactive	inactive	inactive	inactive	inactive	inactive	inactive	inactive
CCCCOC(C)=O	inactive	inactive	inactive	inactive	inactive	inactive	inactive	inactive	inactive	inactive	inactive	inactive	inactive	active	inactive	inactive	inactive	inactive	inactive	inactive

From the M2OR odorant receptor database
